We go through 6 sequences from article PMC8348266, “Intrinsically disordered electronegative clusters improve stability and binding specificity of RNA-binding proteins”.

Tags and fusion partners may be left off the protein sequences shown. For part of these data: Construct, isoform or probe ends are uncertain for at least one entry. For part of these data: At least one verdict rests on a figure or table, not on a statement of the authors. Bounds are passed on as bounds.

Data set [1] addresses T1, Nop15 WT (1xENC) (Saccharomyces cerevisiae) (UniProt P53927).
T1 sequence (looked up): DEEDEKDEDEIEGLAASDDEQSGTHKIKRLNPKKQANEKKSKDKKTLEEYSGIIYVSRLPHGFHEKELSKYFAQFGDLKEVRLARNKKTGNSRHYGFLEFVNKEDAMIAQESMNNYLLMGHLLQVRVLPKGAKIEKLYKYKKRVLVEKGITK
Put plainly: fluorescence polarization. The following applies: 50 mM NaCl, weak binding detectable, no plateau, Nop15 FP: 10 nM RNA/DNA, 20 mM Tris-HCl pH 7.5, 0.02% Tween 20, 150 or 50 mM NaCl, SRSF3 FP: 10 mM MES pH 5.5, 50 mM Arg/Glu, 0.1 mM TCEP, recombinant protein, residues 40-191, protein details: N-terminal SUMO tag (pSMT3) cleaved with Ulp1, label: 5' fluorescein. A general note: In fluorescence polarisation assays a small probe gives low polarisation when free and higher when bound to something large.

The target in another data set is T2, SRSF3 RRM WT (human) (UniProt P84103).
T2 sequence (looked up): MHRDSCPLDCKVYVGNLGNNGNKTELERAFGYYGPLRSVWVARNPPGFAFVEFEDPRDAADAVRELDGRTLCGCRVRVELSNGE
Put plainly: fluorescence polarization. To be noted: pH 5.5, KD only in figure, Nop15 FP: 10 nM RNA/DNA, 20 mM Tris-HCl pH 7.5, 0.02% Tween 20, 150 or 50 mM NaCl, SRSF3 FP: 10 mM MES pH 5.5, 50 mM Arg/Glu, 0.1 mM TCEP, recombinant protein, residues 1-84, protein details: N-terminal SUMO tag cleaved with Ulp1, label: 5' fluorescein.

For orientation: Kd means a measure of binding affinity in units of concentration. Consider UUCAGAGCA [nonspecific ssRNA], for which the dissociation constant (Kd) in data set [1] is above 8 µM. Consider AGAGAGAGA [nonspecific ssDNA], for which the Kd in data set [1] (single-stranded DNA) was above 8 µM. Turning to UCAAC, the binding result in the data set with SRSF3 RRM WT (human) is “binds”. Turning to CUUCA, the binding result with SRSF3 RRM WT (human) is “binds”. Take CAUCA: in the data set with SRSF3 RRM WT (human), the binding result was “binds”. The same measure, in the same setting: the value for ACAUC was “binds”.
